# Measured values: PubChem BioAssay AID2685 (National Center for Advancing Translational Sciences (NCATS), 2010)
# The list shows a part of the results. Further columns of the screen follow, without active or inactive calls. The list favours compounds with an active or inconclusive main result. Potencies come from curve fits of mixed quality, noted in brackets.
# Assay: qHTS Assay for Lipid Storage Modulators in Drosophila S3 Cells;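 for cell number change: cells counted by Cell Tracker Red CMTPX staining in the red channel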
# Conditions: BODIPY lipid droplet fluorescence, 18-24 h; for cell number change: measured here: cell count max response, cells fed with added oleic acid
# Procedure, shortened: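 Laser-scanning cytometry quantifies lipid droplet accumulation (500–530 nm total intensity; droplet/cell object ratio) in oleic acid-fed (400 uM added) Drosophila S3 cells treated with a concentration series. 20 uM Triacsin C defined 100% inhibition.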
# [1] = measured here: cell number channel AC50, cells fed with added oleic acid
# [2] = measured here: lipid fluorescence (Fed channel) AC50, cells fed with added oleic acid
Compound,cell number change [%],AC50 [1],AC50 [2]
CCOc1ccc(CCNC(=O)COC(=O)Cc2c[nH]c3ccccc23)cc1OCC,-71.4,"0.731 µM [falling, full curve]","0.184 µM [falling, full curve]"
CCOC(=O)C1=NOC2C(=O)N(c3ccc(Cl)cc3Cl)C(=O)C12 (centres undefined),-8.49,,"0.00461 µM [falling, full curve, poor fit]"
Cc1c(O)c(C)c2c(c1O)C(=O)C[C@@H](c1ccccc1)O2,-2.15,"7.31 µM [falling, partial curve, poor fit]",
Cc1ccc(CN2C(=O)C3CCCN3c3ccc(C#N)cc32)cc1 (centres undefined),25,,"20.6 µM [rising, single point]"
C/C(=N\Nc1ccc(C(F)(F)F)cc1[N+](=O)[O-])C1CC1,2.01,,
O=C(CCNC(=O)c1ccc(Br)o1)NCc1ccccn1,5.58,"6.51 µM [falling, partial curve, poor fit]","6.51 µM [falling, single point]"
CC(CN1CCC(n2nccc2NC(=O)CCCc2ccccc2)CC1)c1ccccc1 (centres undefined),-16.5,,"0.206 µM [falling, full curve, poor fit]"
c1ccc(NC2=NCCN2CC2CCCCC2)cc1,-16.3,"4.11 µM [falling, single point]","4.11 µM [falling, single point]"
COc1ccc(CCC(C)NCC(C)c2ccccc2)cc1 (centres undefined),-3.97,,
O=C(Nc1cccnc1)Nc1cccc([N+](=O)[O-])c1,15,,"6.51 µM [rising, single point]"
COCCNC(=O)c1c(C)cc(C)cc1C,23.6,"0.326 µM [falling, single point]",
CCOC(=O)Nc1sc(C)nc1-c1ccccc1,-1.11,,
O=C(CCN1C(=O)c2ccccc2S1(=O)=O)Nc1ccccc1O,16.9,,"0.13 µM [falling, full curve, poor fit]"
O=C(NCc1ccc2c(c1)OCO2)c1ccc(C2SCC(=O)N2Cc2ccco2)cc1 (centres undefined),12.1,"1.16 µM [rising, single point]","0.651 µM [rising, partial curve]"
Cn1c(-c2c(N)n(CCCc3ccccc3)c3nc4ccccc4nc23)nc2ccccc21,-5.88,,"29.1 µM [falling, single point]"
Cc1ccccc1CN1CCN(S(=O)(=O)c2ccc(Cl)s2)CC1,11.8,,"18.4 µM [rising, single point]"
Cc1ccc(NC(=O)Cn2ccc([N+](=O)[O-])n2)cc1Cl,31.6,,"0.0116 µM [falling, full curve, poor fit]"
O=C(CCN1CCc2ccccc2C1)Nc1ccc(F)cc1,-10.3,,"1.3 µM [rising, partial curve]"
N#C/C(=C\c1ccc(Cl)cc1)c1nc2ccccc2o1,-22.8,,"10.3 µM [falling, partial curve]"
COc1ccc(N(C(=O)CNC(=O)c2ccco2)C(C(=O)NC2CCCC2)c2ccco2)cc1 (centres undefined),8.75,,
Cc1coc2cc3oc(=O)c4c(c3cc12)CCCC4,0.741,,"1.3 µM [rising, partial curve]"

Compound,cell number change [%],AC50 [1],AC50 [2]
Cc1nc(CCNC(=O)C2CCC(=O)N(Cc3cccc(F)c3)C2)sc1C (centres undefined),-10.5,,
COc1ccc2oc(C(=O)N3CCN(c4ncccn4)CC3)c(C)c2c1,12.9,,"6.51 µM [rising, single point]"
Cc1ccc(NC(=O)C(=O)NC2CCCCC2)cc1,19.2,,"0.0146 µM [rising, full curve]"
O=C(N/N=C/c1ccncc1)c1nc(-c2ccccc2)n2c1CCCCC2,34.4,"14.6 µM [rising, partial curve, poor fit]",
O=C1CCN(CCc2ccccc2)CCN1CCSc1ccccc1,10.2,,"29.1 µM [falling, single point]"
O=C(COc1ccccc1Cl)NCCCNC(=O)c1cccnc1,32.1,"29.1 µM [rising, partial curve, poor fit]",
CCN(CC)S(=O)(=O)c1cccc(C(=O)NCC2CCCO2)c1 (centres undefined),-6.59,,"0.326 µM [rising, full curve, poor fit]"
O=C(NNC(=O)C1CCN(S(=O)(=O)c2ccccc2C(F)(F)F)CC1)c1ccccc1O,82.5,"4.61 µM [rising, full curve]",
CCN(C(=O)Cn1nc(C)n2c(cc3cc(C)ccc32)c1=O)c1ccccc1,-2.29,,
CC1CCCC(NC(=O)CSC2=Nc3ccccc3C3CC=NN23)C1C (centres undefined),-5.91,"0.0103 µM [rising, full curve, poor fit]","29.1 µM [falling, single point]"
CC1=CC2=NCC(O)CN2C=C1 (centres undefined),-47,"3.66 µM [falling, full curve]","3.66 µM [falling, full curve]"
COc1ccc(OC)c(NC(=O)C2CCCN(S(=O)(=O)c3ccc(-n4cnnn4)cc3)C2)c1 (centres undefined),-9.57,,
CC(C)(C)n1nnnc1CN(Cc1cccnc1)Cc1ccccc1Cl,-4.96,,"1.46 µM [rising, partial curve]"
COc1ccc(C(=O)CC(=O)C(=O)Nc2ccccc2)cc1,25.5,,
CCOC(=O)c1cccnc1SC(CC)C(=O)NCc1ccco1 (centres undefined),71.6,"23.1 µM [rising, partial curve, poor fit]","3.66 µM [falling, full curve, poor fit]"
C#CCOCCOCCOCCNc1nc(N2CCN(C(=O)[C@H]([C@@H](C)CC)n3cc(CCCN=C(N)N)nn3)CC2)nc(N2CCN(C(=O)[C@H](C)n3cc(CCCN=C(N)N)nn3)CC2)n1,2.6,,"0.00461 µM [falling, full curve, poor fit]"
Cn1c(CS/C(N)=N/N=C/c2ccccc2)c(Br)c(=O)n1-c1ccccc1,,,"2.31 µM [rising, full curve]"
CCOc1ccc(C2C(C(=O)c3ccco3)=C(O)C(=O)N2CCN(C)C)cc1 (centres undefined),-19.5,,
CC1CC(C)CN(C(=O)COC(=O)Cc2ccc(Br)cc2)C1 (centres undefined),,,"6.51 µM [falling, single point]"
O=C(C(Cc1ccccc1)n1cccc1)N1CCCCC1 (centres undefined),-15.9,"0.82 µM [falling, partial curve, poor fit]",
CCOC(=O)c1c(C)[nH]c(C)c1S(=O)(=O)NC1CCN(C(=O)OCC)CC1,,,"4.11 µM [falling, partial curve]"

Compound,cell number change [%],AC50 [1],AC50 [2]
CCOc1ccc(/C(O)=C2\C(=O)C(=O)N(CCOCCO)C2c2ccccc2OC)cc1 (centres undefined),-8.77,,
CCc1ccc(/C=N/NC(=O)c2cc(C3CC3)nc3ccccc23)s1,-15.4,,"23.1 µM [rising, partial curve]"
C[C@H](NC(=O)[C@@H]1Cc2ccccc2CN1)C(=O)NC1CCCCC1,6.11,,"20.6 µM [rising, single point]"
CCc1ccc(N(C(=O)c2csnn2)C(C(=O)NC(C)(C)CC)c2ccccn2)cc1 (centres undefined),,,"1.64 µM [falling, single point]"
Cc1ccccc1OCC(=O)Nc1nc(C)c(C(=O)N(C)C)s1,,,"29.1 µM [rising, single point]"
C=CCNc1c2c(nc3ncnn13)CC(C)CC2 (centres undefined),56.6,"2.31 µM [rising, full curve]","0.731 µM [rising, single point]"
Cc1ccc(C)c(-n2c(-c3cccnc3)n[nH]c2=S)c1,-50,"29.1 µM [falling, single point]",
COc1ccccc1CCNC(=O)C(=O)NCC1OCCN1S(=O)(=O)c1cc(F)ccc1F (centres undefined),7.49,"0.517 µM [rising, single point]",
CCn1cc(C(=O)N2CCCC(N3CCN(c4cccc(C(F)(F)F)c4)CC3)C2)cn1 (centres undefined),-24.8,,"0.58 µM [falling, single point]"
CCOC(=O)Cc1nnc(NC(=O)CSc2ccccc2)s1,16.5,,
OC(COc1c(Br)cc(Br)cc1Br)CN1CCOCC1 (centres undefined),-16.3,,"0.082 µM [rising, full curve, poor fit]"
C/C(=N\NC(=O)CCCNc1ccc(C)cc1)c1ccccn1,16.7,,"4.61 µM [rising, full curve]"
COC(=O)C1=C(C)N(CCc2ccccc2)C(=O)C1(NS(=O)(=O)c1ccc(NC(C)=O)cc1)C(F)(F)F (centres undefined),34,"0.0517 µM [rising, full curve, poor fit]","0.731 µM [rising, partial curve, poor fit]"
COc1c(Cl)cc(-c2noc(C)c2C(=O)NCc2ccccc2)cc1Cl,,,"23.1 µM [rising, single point]"
CCOc1cc(CNCCc2ccc(S(N)(=O)=O)cc2)ccc1OCc1ccccc1,-28,,"29.1 µM [falling, single point]"
COc1ccc(OS(=O)(=O)Cc2ccccc2)cc1,15.1,,"6.51 µM [falling, full curve, poor fit]"
Cc1ccc(NC(=O)COC(=O)C2CCC(=O)N2)c(S(=O)(=O)N2CCOCC2)c1 (centres undefined),,,"23.1 µM [falling, partial curve]"
O=C(NCc1ccc(F)cc1)c1ccc(NC(=O)C2CCCO2)cc1 (centres undefined),12.9,,"18.4 µM [rising, single point]"
Nc1ccc(NC(=O)CCN2CCOCC2)cc1,7.14,,"4.11 µM [falling, single point]"
CC(=O)NC(CC(=O)Nc1ccc(S(=O)(=O)N2CCCCC2)cc1)c1ccccc1 (centres undefined),,"0.164 µM [rising, full curve, poor fit]",

# In the list so far, 2 contain a thiophene ring, fused or not:
Compound,cell number change [%],AC50 [1],AC50 [2]
Cc1ccccc1CN1CCN(S(=O)(=O)c2ccc(Cl)s2)CC1,11.8,,"18.4 µM [rising, single point]"
CCc1ccc(/C=N/NC(=O)c2cc(C3CC3)nc3ccccc23)s1,-15.4,,"23.1 µM [rising, partial curve]"
